The record followed here is the supplement of paper PMC10849652.

Sequences of proteins named here, by UniProt entry; tags and fusion partners are left off. A change or cut given only in a name is not applied to a line headed by its entry.
UniProt Q9NRG9: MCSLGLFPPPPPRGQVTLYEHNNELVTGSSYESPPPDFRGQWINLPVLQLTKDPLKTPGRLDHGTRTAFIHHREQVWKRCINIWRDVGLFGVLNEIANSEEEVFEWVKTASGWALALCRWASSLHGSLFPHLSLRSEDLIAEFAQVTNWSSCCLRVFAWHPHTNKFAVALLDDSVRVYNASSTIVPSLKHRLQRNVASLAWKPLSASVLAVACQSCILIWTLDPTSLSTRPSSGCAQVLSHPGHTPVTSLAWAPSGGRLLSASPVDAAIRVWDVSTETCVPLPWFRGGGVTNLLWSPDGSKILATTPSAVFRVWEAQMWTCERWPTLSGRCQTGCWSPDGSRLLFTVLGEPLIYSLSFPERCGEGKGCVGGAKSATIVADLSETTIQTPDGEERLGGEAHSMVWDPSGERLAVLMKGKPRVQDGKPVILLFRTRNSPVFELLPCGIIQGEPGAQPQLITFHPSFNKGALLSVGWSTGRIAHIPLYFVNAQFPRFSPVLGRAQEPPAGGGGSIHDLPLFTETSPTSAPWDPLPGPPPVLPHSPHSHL
UniProt Q9NRN7: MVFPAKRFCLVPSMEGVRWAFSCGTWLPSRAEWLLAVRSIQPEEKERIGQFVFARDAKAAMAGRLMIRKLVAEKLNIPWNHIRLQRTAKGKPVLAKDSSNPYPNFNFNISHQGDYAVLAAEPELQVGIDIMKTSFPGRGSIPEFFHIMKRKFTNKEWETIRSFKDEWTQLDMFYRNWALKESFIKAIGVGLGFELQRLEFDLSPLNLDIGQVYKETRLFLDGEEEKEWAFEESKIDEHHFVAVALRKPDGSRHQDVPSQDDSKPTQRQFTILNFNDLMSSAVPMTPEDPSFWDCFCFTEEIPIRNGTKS
UniProt O00154: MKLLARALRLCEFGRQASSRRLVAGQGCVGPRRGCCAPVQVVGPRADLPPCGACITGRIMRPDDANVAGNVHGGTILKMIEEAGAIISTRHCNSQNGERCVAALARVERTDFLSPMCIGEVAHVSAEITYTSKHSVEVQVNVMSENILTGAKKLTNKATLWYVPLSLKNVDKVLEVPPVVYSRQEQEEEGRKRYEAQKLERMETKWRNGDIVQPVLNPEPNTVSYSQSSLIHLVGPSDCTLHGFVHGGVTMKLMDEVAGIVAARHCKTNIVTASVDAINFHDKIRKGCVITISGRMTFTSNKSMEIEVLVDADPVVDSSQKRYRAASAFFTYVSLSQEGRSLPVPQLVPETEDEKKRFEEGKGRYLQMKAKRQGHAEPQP
UniProt Q5VST6: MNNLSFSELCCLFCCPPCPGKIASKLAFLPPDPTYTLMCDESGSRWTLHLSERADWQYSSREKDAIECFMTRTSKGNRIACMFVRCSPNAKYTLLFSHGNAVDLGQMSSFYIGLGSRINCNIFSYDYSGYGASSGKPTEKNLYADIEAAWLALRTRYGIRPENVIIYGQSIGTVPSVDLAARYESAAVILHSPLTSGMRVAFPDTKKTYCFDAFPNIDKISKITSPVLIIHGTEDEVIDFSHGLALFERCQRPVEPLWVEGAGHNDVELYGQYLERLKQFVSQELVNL
UniProt Q9NPJ3: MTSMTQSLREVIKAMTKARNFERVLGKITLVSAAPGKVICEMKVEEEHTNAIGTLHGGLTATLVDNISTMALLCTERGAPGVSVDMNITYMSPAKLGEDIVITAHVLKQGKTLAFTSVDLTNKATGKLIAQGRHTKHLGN
UniProt P53396: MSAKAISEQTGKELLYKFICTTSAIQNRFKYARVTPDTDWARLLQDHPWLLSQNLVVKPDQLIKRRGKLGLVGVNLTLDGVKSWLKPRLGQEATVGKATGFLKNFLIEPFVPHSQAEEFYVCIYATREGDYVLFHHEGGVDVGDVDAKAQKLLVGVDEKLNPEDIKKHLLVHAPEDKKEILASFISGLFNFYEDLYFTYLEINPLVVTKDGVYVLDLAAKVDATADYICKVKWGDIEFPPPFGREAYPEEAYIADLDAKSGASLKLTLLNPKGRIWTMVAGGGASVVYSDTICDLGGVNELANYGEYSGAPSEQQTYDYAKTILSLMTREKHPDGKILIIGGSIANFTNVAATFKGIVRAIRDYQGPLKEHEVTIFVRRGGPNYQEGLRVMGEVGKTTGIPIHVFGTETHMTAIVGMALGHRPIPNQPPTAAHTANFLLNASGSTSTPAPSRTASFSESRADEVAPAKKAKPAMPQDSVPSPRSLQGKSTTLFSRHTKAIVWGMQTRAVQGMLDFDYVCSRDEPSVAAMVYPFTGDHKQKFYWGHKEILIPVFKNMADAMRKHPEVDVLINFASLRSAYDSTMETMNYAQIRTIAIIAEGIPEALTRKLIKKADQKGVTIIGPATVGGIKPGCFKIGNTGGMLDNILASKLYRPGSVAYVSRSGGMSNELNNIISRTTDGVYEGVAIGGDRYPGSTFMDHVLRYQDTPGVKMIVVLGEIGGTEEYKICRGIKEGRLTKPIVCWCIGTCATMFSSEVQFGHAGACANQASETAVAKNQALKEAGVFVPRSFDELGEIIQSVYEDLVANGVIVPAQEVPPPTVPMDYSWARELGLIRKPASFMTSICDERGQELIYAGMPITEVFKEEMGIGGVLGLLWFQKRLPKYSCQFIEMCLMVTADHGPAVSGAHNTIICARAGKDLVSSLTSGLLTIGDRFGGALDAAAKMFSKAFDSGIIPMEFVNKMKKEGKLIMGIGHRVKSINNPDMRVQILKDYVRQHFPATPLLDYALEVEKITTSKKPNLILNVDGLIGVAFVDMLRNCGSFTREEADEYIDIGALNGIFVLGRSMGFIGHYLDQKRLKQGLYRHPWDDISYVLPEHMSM
UniProt O14639: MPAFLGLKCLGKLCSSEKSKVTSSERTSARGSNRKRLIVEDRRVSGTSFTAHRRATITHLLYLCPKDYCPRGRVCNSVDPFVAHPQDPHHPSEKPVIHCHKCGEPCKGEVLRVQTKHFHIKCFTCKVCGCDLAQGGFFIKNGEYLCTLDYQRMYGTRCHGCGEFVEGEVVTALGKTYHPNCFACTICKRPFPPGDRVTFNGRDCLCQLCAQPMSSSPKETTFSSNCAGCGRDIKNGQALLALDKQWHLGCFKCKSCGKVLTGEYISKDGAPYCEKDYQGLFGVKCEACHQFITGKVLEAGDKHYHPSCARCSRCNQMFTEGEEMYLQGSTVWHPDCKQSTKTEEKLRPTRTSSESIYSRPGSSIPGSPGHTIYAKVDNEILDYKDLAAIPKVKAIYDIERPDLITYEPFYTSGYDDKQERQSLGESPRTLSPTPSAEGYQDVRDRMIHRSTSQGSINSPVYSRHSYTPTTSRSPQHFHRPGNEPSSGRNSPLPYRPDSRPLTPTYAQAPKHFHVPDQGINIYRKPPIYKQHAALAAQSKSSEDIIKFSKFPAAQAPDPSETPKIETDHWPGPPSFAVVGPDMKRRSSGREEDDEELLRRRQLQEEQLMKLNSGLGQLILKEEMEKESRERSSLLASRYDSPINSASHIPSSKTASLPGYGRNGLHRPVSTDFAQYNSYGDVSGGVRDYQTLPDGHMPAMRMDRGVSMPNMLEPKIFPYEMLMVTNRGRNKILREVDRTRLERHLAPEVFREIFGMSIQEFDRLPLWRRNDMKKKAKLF
UniProt P01023, whole entry, looked up: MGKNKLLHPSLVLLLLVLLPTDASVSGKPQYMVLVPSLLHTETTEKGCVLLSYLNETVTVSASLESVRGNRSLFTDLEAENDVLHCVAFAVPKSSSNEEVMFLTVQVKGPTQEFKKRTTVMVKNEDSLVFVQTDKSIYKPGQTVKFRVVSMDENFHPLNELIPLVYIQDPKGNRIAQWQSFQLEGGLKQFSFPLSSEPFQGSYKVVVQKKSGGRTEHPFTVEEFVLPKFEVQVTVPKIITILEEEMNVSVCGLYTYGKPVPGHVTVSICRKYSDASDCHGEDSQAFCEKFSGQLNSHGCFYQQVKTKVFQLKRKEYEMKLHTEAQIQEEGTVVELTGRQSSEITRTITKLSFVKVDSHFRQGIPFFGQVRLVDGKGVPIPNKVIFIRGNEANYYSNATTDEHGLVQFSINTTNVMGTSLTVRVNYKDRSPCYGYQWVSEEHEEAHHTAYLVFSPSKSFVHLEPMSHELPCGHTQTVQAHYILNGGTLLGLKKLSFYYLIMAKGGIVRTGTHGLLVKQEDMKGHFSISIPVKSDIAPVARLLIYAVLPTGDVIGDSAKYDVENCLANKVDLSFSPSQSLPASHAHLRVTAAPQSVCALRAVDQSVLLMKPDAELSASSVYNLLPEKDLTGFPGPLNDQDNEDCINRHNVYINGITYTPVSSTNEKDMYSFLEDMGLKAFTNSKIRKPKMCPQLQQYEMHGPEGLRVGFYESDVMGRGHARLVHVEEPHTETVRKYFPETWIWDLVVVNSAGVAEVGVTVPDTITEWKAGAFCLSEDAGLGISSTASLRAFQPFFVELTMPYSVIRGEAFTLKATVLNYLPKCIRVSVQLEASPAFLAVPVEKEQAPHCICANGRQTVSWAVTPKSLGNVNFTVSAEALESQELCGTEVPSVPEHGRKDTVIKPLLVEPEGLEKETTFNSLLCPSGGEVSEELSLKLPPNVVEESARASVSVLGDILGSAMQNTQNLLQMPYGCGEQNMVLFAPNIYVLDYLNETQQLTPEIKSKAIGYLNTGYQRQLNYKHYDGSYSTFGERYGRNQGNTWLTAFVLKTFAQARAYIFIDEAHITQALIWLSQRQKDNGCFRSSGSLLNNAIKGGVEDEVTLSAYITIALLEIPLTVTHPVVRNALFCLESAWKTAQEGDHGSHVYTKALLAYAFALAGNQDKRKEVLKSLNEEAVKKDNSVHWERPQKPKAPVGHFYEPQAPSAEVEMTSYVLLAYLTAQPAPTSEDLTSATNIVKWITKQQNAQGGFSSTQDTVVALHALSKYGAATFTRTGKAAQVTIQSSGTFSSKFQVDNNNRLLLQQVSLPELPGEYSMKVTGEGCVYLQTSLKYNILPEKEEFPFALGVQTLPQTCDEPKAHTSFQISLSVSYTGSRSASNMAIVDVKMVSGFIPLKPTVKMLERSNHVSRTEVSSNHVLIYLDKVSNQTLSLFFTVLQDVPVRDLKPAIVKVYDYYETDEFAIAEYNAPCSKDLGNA
UniProt Q9NR19, whole entry, looked up: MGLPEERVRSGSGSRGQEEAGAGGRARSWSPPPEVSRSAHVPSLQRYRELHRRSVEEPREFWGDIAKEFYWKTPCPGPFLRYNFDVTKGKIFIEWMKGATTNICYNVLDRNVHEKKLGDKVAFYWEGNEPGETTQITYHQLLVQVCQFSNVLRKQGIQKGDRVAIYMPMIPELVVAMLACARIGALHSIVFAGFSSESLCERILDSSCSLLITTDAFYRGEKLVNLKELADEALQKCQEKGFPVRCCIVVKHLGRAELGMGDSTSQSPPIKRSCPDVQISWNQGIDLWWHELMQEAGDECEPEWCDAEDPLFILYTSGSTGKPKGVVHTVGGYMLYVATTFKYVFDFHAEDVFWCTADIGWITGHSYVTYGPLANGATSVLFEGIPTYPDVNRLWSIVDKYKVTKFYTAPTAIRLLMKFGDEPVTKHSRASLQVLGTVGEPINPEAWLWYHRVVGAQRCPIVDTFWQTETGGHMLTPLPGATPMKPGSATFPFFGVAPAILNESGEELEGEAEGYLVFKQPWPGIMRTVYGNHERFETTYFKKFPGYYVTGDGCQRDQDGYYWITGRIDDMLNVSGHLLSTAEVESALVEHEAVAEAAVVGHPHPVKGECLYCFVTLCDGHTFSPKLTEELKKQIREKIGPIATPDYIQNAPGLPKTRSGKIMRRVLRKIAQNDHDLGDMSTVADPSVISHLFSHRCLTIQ
UniProt Q9NUJ1: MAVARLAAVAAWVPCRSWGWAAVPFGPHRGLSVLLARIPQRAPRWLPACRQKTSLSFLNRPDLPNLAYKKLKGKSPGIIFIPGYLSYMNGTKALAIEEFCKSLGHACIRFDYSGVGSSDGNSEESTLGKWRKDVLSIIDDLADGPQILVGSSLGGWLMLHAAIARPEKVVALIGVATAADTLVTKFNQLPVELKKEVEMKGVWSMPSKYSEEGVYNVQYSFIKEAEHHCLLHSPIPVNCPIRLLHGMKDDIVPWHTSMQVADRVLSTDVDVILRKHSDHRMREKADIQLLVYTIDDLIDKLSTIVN
UniProt Q8IZP0: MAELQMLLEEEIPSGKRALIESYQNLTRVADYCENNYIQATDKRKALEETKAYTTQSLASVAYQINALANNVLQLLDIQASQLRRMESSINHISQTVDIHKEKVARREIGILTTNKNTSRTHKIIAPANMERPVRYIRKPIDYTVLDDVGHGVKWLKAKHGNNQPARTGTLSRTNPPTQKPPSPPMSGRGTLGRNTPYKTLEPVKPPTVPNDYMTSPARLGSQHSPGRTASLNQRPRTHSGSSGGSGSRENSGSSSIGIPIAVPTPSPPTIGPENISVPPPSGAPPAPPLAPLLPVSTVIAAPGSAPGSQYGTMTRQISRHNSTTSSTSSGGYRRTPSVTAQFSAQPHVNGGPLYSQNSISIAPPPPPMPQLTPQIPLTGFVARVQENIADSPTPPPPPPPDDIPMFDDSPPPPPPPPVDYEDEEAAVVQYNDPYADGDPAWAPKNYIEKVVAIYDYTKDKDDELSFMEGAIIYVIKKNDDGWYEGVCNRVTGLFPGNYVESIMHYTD

This is one part of the list.

Compound in one test: CC[C@H](C)N1C=C(C2=C(C=C(C=C21)C3=CN=C(C=C3)N4CCNCC4)C(=O)NCC5=C(C=C(NC5=O)C)C)C
The test is described as follows: log2 fold change, soluble protein after heating vs DMSO (PISA); higher = thermal stabilisation; K562 cells, 10 uM, 30 min; active = over 0.2 and 3.5 SD of the protein, either way, in both replicates (recomputed). The method in brief: (§1)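 K562 cells at 2×10^6 cells/mL were given 10 μM compound for 30 min. Aliquots then went through 3 min of heating across 48°C-58°C, were pooled, and were extracted in PBS with 0.5% NP-40 at 4°C, and the supernatant after 21,000xg for 90 min was quantified by TMTpro 16plex LC-MS/MS with channel sums equalised. Thermal stability relative to control samples, from duplicates, is given as log2 fold change.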
Regarding AAAS (UniProt Q9NRG9), the log2 fold change is inactive: 0.022.
Still for that read-out and setting: in the case of ACAD8 (UniProt Q9UKU7) it was inactive: -0.014; in that of ACTA1 (UniProt P68133), inactive: -0.04; in that of AASDHPPT (UniProt Q9NRN7), inactive: 0.02.
For the target ABHD13 (UniProt Q7L211), the log2 fold change is inactive: -0.262.
Still for that read-out and setting: in the case of ABCF1 (UniProt Q8NE71) it was inactive: -0.002; in that of ACTR1A (UniProt P61163), inactive: -0.003; in that of ACOT7 isoform 7 (UniProt O00154), inactive: -0.023.
Same read-out and setting: under ADA (UniProt P00813) stands inactive: 0.03.
Consider ABHD17B (UniProt Q5VST6), for which the log2 fold change is inactive: -0.02.
The same measure, in the same setting: in the case of ADAT3 (UniProt Q96EY9) it was inactive: 0.047.
On the same count and under the same terms, in the case of ACTL8 (UniProt Q9H568) it was inactive: -0.016; in that of ACTB, A0A2R8Y793, inactive: -0.008; in that of ACTR6 (UniProt Q9GZN1), inactive: 0.071.
With ACOT13 (UniProt Q9NPJ3), the log2 fold change is inactive: -0.003.
Same read-out and setting: in the case of ACADS (UniProt P16219) it was inactive: -0.009; in that of ACTL6A (UniProt O96019), inactive: 0.029.
For the target ABCB7 isoform 2 (UniProt O75027), the log2 fold change is inactive: 0.029.
Take ABCE1 (UniProt P61221): the log2 fold change was inactive: -0.031.
On the same count and under the same terms, in the case of ACLY (UniProt P53396) it was inactive: 0.02; in that of ABLIM1 (UniProt O14639), inactive: -0.009; in that of ACOX1 isoform 2 (UniProt Q15067), inactive: -0.032.
On the same count and under the same terms, in the case of ACAT1 (UniProt P24752) it was inactive: -0.002; in that of ABCE1 (UniProt H0Y990), inactive: -0.013.
As to ACBD3 (UniProt Q9H3P7), the log2 fold change was inactive: 0.061.
Still for that read-out and setting: under ACTR3 (UniProt P61158) stands inactive: -0.029; under A2M (UniProt P01023), inactive: 0.025; under ACTR10 (UniProt Q9NZ32), inactive: -0.009.
Same read-out and setting: under ADAR isoform 4 (UniProt P55265) stands inactive: -0.073.
On the same count and under the same terms, in the case of ACAA1 (UniProt P09110) it was inactive: -0.024.
For ACYP1 (UniProt P07311), the log2 fold change was inactive: 0.016.
Same read-out and setting: under ABCC4 (UniProt O15439) stands inactive: -0.024.
As to ACSS2 isoform 2 (UniProt Q9NR19), the log2 fold change was inactive: 0.025.
On the same count and under the same terms, under ACAT2 (UniProt Q9BWD1) stands inactive: -0.031; under ABHD10 (UniProt Q9NUJ1), inactive: -0.042.
The same measure, in the same setting: in the case of ABI1 (UniProt Q8IZP0) it was inactive: 0.059.
For ACOT9 isoform 4 (UniProt Q9Y305), the log2 fold change is inactive: 0.03.

Compound in a further test: CC[C@H](C)[C@@H](C(=O)N[C@@H]([C@@H](C)O)C(=O)N[C@@H](CC(C)C)C(=O)[C@]1(CO1)C)NC(=O)[C@H]([C@@H](C)CC)N(C)C(=O)C [epoxomicin]
The description is as above. The method in brief: as §1
Take AAAS (UniProt Q9NRG9): the log2 fold change is inactive: 0.095.
Still for that read-out and setting: in the case of ACAD8 (UniProt Q9UKU7) it was inactive: -0.015; in that of ACTA1 (UniProt P68133), inactive: -0.001; in that of AASDHPPT (UniProt Q9NRN7), inactive: 0.051.
Same read-out and setting: under ABHD13 (UniProt Q7L211) stands inactive: 0.018; under ABCF1 (UniProt Q8NE71), inactive: -0.119.
On the same count and under the same terms, in the case of ACTR1A (UniProt P61163) it was inactive: 0.029; in that of ACOT7 isoform 7 (UniProt O00154), inactive: -0.036.
With ADA (UniProt P00813), the log2 fold change was inactive: -0.009.
Same read-out and setting: in the case of ABHD17B (UniProt Q5VST6) it was inactive: -0.047; in that of ADAT3 (UniProt Q96EY9), inactive: -0.026.
As for ACTL8 (UniProt Q9H568), the log2 fold change is inactive: 0.037.
ACTB, A0A2R8Y793: the log2 fold change is inactive: 0.042.
Turning to ACTR6 (UniProt Q9GZN1), the log2 fold change is inactive: 0.084.
In the case of ACOT13 (UniProt Q9NPJ3), the log2 fold change was inactive: -0.003.
As to ACADS (UniProt P16219), the log2 fold change is inactive: -0.001.
Still for that read-out and setting: in the case of ACTL6A (UniProt O96019) it was inactive: 0.004; in that of ABCB7 isoform 2 (UniProt O75027), inactive: -0.003; in that of ABCE1 (UniProt P61221), inactive: 0.001.
The same measure, in the same setting: in the case of ACLY (UniProt P53396) it was inactive: 0.001; in that of ABLIM1 (UniProt O14639), inactive: 0.012.
The same measure, in the same setting: under ACOX1 isoform 2 (UniProt Q15067) stands inactive: 0.01.
For the target ACAT1 (UniProt P24752), the log2 fold change is inactive: 0.051.
The same measure, in the same setting: under ABCE1 (UniProt H0Y990) stands inactive: 0.162.
On to ACBD3 (UniProt Q9H3P7), for which the log2 fold change was inactive: 0.032.
Take ACTR3 (UniProt P61158): the log2 fold change is inactive: 0.05.
Turning to A2M (UniProt P01023), the log2 fold change was inactive: -0.647.
The same measure, in the same setting: under ACTR10 (UniProt Q9NZ32) stands inactive: 0.036; under ADAR isoform 4 (UniProt P55265), inactive: -0.185; under ACAA1 (UniProt P09110), inactive: 0.008.
Still for that read-out and setting: in the case of ACYP1 (UniProt P07311) it was inactive: -0.028; in that of ABCC4 (UniProt O15439), inactive: 0.013.
With ACSS2 isoform 2 (UniProt Q9NR19), the log2 fold change was inactive: 0.073.
On the same count and under the same terms, in the case of ACAT2 (UniProt Q9BWD1) it was inactive: 0.003.
On the same count and under the same terms, in the case of ABHD10 (UniProt Q9NUJ1) it was inactive: -0.021; in that of ABI1 (UniProt Q8IZP0), inactive: 0.005; in that of ACOT9 isoform 4 (UniProt Q9Y305), inactive: -0.003.
